These results are taken from patent publication US20140302034A1 (STEM CENTRX, published 2014).

No constants are given. Whether binding was seen depends on the method and setting. Some entries that bind do so weakly or less than the wild type.

Test [1] deals with T1, mouse EFNA3 (mouse, UniProt O08545).
T1 construct: the sheet prints only 'Ms XR'; also called mouse ephrin-A3 homolog
T1 sequence (ligand, looked up): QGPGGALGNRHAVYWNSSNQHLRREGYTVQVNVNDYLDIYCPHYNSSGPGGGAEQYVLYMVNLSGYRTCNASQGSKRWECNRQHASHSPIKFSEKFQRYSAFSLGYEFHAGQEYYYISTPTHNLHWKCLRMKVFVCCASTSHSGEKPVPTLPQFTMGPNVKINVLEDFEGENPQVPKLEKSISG
The test can be described thus: cross-reactivity with the mouse homolog (e.g. by ForteBio).

Test [2] concerns the target cynomolgus EFNA1 (cynomolgus). Kind of test: ForteBio, concentration series of recombinant monomeric cynomolgus ephrin-A1.

B1: SC11.51 (antibody, V domains shown)
VH: EVQLQQSGPELVKPGASVKISCKASGYTFTDYYMNWVKQTHGKSLEWIGDITPNSGGPTYNQNFKGKATLTVDRSSTTAFMELRSLTSDDSAVYYCVRSAYYYGTNYDFDYWGQGTTLTVSS
VL: QIVLTQSPAIMSASPGEKVTMTCSASSSVTYMYWYQQKPGSSPKPWIYRTSNLASGVPTRFSGSGSGTSYSLTISSVEAEDTATYYCQQYSDYPLTFGAGTKLELK
notes: Murine monoclonal antibody from a hybridoma; also called EFNA3 modulator SC11.51
Take B1: the binding entry in test [1] is on record as “binds”.

B2: SC9.20 (antibody, V domains shown)
VH: DVQLQESGPGLVKPSQSLSLTCSVTGYSITSGYYWNWIRQFPGNRLEWMAYISYDGSNDYNPSLKNRISITRDTSKNQFFLKLNSVTTEDTATYYCARGYPILFAYWGQGTLVTVSA
VL: DIKMTQSPSSMNASLGERVSITCKTSQDINSYLSWLQQKPGKSPKTLIYRANRLVDGVPSRFSGSGSGQDYSLTISSLEYEDMGIYYCLQYDEFPLTFGIGTKLELK
In the case of B2, the binding result in test [2] is “binds”.
